PMC11721587, “Morphogen-induced kinase condensates transduce Hh signal by allosterically activating Gli” (Science Advances, 2025)

Target: Sufu (Drosophila (endogenous in Cl8))
Assay: co-IP; sequential IP of endogenous proteins from cytoplasmic and nuclear fractions of Cl8 cells with Hh-conditioned or control medium, 5 nM LMB; first IP anti-Ci (2A1), eluted with GST-Ci 700-850; second IP anti-Sufu (25H3)

B1: fused (Fu) (enzyme, Drosophila (endogenous in Cl8), UniProt P23647 1-805, looked up)
chain: MNRYAVSSLVGQGSFGCVYKATRKDDSKVVAIKVISKRGRATKELKNLRRECDIQARLKHPHVIEMIESFESKTDLFVVTEFALMDLHRYLSYNGAMGEEPARRVTGHLVSALYYLHSNRILHRDLKPQNVLLDKNMHAKLCDFGLARNMTLGTHVLTSIKGTPLYMAPELLAEQPYDHHADMWSLGCIAYESMAGQPPFCASSILHLVKMIKHEDVKWPSTLTSECRSFLQGLLEKDPGLRISWTQLLCHPFVEGRIFIAETQAEAAKESPFTNPEAKVKSSKQSDPEVGDLDEALAALDFGESRQENLTTSRDSINAIAPSDVEHLETDVEDNMQRVVVPFADLSYRDLSGVRAMPMVHQPVINSHTCFVSGNSNMILNHMNDNFDFQASLRGGGVAAKPIVAPTVRQSRSKDLEKRKLSQNLDNFSVRLGHSVDHEAQRKATEIATQEKHNQENKPPAEAISYANSQPPQQQPQQLKHSMHSTNEEKLSSDNTPPCLLPGWDSCDESQSPPIENDEWLAFLNRSVQELLDGELDSLKQHNLVSIIVAPLRNSKAIPRVLKSVAQLLSLPFVLVDPVLIVDLELIRNVYVDVKLVPNLMYACKLLLSHKQLSDSAASAPLTTGSLSRTLRSIPELTVEELETACSLYELVCHLVHLQQQFLTQFCDAVAILAASDLFLNFLTHDFRQSDSDAASVRLAGCMLALMGCVLRELPENAELVERIVFNPRLNFVSLLQSRHHLLRQRSCQLLRLLARFSLRGVQRIWNGELRFALQQLSEHHSYPALRGEAAQTLDEISHFTFFVT
notes: Fu Ser/Thr kinase, Drosophila, endogenous in Cl8 cells; After Hh it is phosphorylated (T158/S159, S482) and SUMO-conjugated; the SDS-resistant dimer is called mature Fu; also called endogenous Fu; mature Fu; source: endogenous, Cl8 cells (fractions, lysates)
binding: binds

These are yes or no findings as the source states them, for the method shown. Binding seen in cells or lysates may run through a third protein. Binding calls can cover weak binding; strength is not graded here. Tags and fused reporters may be left off the sequences shown.
